# Data: the supplement of paper PMC10849652
# Sequences of proteins named here, by UniProt entry; tags and fusion partners are left off. A change or cut given only in a name is not applied to a line headed by its entry.
# UniProt O95197: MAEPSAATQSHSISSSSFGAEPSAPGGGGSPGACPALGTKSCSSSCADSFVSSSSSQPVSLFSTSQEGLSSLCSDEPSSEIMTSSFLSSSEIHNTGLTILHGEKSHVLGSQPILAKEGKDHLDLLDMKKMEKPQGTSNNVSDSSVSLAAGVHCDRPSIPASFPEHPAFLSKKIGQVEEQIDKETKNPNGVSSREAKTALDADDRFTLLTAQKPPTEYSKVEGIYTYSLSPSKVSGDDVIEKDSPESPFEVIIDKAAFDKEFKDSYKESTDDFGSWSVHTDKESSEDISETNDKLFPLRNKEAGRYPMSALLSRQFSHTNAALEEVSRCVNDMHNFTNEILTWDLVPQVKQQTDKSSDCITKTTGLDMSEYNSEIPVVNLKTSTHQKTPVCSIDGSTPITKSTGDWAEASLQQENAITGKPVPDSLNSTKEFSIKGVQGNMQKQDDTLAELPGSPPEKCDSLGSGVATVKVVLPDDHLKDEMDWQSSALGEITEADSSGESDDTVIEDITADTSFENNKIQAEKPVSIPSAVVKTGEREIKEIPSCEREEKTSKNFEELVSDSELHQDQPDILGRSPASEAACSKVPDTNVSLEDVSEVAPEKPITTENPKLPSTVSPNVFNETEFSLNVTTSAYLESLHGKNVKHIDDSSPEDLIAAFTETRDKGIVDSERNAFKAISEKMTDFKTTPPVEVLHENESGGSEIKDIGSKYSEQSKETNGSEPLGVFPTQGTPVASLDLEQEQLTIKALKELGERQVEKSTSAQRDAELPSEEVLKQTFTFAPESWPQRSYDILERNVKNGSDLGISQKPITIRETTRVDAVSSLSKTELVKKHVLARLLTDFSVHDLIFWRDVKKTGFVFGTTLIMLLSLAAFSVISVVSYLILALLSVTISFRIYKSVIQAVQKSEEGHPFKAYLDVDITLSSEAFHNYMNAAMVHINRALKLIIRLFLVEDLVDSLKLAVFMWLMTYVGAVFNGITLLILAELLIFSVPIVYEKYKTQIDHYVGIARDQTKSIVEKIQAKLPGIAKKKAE
# UniProt Q7L523, whole entry, looked up: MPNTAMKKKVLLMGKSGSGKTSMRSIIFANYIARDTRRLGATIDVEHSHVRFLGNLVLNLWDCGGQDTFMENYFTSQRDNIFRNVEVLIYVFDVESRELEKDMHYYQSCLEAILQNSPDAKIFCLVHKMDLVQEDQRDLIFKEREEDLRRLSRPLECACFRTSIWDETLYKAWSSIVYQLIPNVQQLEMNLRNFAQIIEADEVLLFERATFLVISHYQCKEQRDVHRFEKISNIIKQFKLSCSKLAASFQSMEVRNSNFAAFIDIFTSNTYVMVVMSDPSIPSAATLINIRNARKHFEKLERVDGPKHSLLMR
# UniProt Q5JTH9: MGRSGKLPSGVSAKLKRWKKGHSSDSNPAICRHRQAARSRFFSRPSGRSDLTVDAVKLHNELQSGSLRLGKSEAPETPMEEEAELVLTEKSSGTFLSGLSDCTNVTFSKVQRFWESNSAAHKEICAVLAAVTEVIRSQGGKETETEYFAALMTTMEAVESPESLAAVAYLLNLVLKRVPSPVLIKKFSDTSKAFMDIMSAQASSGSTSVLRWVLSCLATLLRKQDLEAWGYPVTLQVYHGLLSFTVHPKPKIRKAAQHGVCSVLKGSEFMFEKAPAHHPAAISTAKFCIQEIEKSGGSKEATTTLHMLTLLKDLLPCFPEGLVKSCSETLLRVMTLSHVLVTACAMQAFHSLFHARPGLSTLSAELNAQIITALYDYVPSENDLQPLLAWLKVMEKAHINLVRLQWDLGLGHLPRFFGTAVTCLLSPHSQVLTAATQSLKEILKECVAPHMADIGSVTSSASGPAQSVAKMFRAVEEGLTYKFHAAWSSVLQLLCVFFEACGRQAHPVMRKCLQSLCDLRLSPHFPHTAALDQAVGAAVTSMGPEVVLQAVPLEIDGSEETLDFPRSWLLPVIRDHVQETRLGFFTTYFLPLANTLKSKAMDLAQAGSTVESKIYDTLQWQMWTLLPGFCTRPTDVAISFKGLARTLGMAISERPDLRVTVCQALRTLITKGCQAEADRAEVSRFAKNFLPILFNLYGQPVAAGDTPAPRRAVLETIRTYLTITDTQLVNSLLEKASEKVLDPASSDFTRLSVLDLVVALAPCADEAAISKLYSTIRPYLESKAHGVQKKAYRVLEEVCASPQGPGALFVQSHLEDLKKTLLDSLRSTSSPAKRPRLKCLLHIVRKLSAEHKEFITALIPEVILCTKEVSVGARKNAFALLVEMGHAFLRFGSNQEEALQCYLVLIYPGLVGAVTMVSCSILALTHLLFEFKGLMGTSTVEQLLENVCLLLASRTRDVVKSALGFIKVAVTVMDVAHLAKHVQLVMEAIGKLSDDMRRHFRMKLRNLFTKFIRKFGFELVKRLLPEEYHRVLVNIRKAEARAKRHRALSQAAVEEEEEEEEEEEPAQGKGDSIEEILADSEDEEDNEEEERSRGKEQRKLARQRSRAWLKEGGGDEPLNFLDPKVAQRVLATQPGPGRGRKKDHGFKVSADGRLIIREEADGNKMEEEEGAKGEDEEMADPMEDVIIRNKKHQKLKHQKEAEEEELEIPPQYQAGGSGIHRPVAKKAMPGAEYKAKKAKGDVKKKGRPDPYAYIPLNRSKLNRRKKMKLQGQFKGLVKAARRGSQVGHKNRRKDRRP
# UniProt P62070: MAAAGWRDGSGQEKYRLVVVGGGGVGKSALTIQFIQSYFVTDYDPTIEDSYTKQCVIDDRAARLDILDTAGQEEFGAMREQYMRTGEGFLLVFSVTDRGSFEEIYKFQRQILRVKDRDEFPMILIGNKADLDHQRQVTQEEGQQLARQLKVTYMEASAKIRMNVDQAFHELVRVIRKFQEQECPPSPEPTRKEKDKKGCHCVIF
# UniProt Q96P16: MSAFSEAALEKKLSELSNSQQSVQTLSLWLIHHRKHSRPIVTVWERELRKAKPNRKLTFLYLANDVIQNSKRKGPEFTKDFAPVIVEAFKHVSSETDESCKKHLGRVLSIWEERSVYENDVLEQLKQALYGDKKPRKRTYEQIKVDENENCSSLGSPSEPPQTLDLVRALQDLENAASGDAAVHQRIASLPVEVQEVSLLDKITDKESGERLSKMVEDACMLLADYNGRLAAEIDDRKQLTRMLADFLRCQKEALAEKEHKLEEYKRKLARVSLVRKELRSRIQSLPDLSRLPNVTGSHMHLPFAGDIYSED
# UniProt Q96T51: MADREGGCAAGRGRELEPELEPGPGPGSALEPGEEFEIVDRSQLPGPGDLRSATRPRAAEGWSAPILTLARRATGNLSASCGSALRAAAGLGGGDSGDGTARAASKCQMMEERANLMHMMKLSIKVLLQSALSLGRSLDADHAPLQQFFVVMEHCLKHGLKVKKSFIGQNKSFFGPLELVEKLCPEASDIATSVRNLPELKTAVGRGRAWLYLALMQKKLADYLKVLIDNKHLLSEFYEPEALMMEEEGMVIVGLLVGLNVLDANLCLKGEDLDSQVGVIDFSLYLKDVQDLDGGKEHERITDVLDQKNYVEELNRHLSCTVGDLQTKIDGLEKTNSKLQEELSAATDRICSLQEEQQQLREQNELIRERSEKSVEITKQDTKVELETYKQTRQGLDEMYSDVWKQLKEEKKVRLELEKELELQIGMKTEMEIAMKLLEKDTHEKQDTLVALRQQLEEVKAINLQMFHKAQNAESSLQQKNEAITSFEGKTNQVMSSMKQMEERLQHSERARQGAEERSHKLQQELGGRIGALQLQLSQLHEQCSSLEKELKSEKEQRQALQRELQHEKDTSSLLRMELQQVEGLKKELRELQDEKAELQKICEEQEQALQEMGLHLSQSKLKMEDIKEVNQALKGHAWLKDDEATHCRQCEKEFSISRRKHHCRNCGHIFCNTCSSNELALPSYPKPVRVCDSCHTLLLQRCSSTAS
# This is one part of the list.
# Tests used:
# Experiment in all cases: log2 fold change, soluble protein after heating vs DMSO (PISA); higher = thermal stabilisation; K562 lysate, 10 uM; active = over 0.2 and 3.5 SD of the protein, either way, in both replicates (recomputed)
# ibrutinib = compound: C=CC(=O)N1CCC[C@@H](n2nc(-c3ccc(Oc4ccccc4)cc3)c3c(N)ncnc32)C1 [ibrutinib]
# Outline: (§1)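 To prepare the extract, K562 pellets were dounce-homogenised in PBS pH 7.4 with 1 mM MgCl2, giving crude material at 1 mg/mL protein. This was treated with 10 μM compound for 30 min, then heated in aliquots for 3 min over 48°C-58°C before pooling and addition of NP-40 to 0.5% at 4°C. Centrifugation at 21,000xg for 90 min left soluble protein in the supernatant, which TMTpro 16plex LC-MS/MS quantified with equalised channel sums. Results are log-two fold changes in thermal stability compared with solvent controls, from duplicates.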
# [1] = compound: CC(=O)c1cnc2ccc(-c3cc(Cl)c(O)c(Cl)c3)nc2c1N[C@H]1CC[C@H](CN(C)C)CC1
# Outline: as §1
# ralimetinib = compound: CC(C)(C)Cn1c(N)nc2ccc(-c3[nH]c(C(C)(C)C)nc3-c3ccc(F)cc3)nc21 [ralimetinib]
# Outline: as §1
# [2] = compound: CC(C)(O)CC(=O)NCCn1ccc2ncnc(Nc3ccc(Oc4cccc(C(F)(F)F)c4)c(Cl)c3)c21
# Outline: as §1
# [3] = compound: CC(C)C1=C2N=C(C=C(N2N=C1)NCC3=CC=CC=C3)NCCCCCCN
# Outline: as §1
# [4] = compound: CC1=C(C(CC(=O)N1)C2=CC=C(C=C2)C(F)(F)F)C(=O)NC3=C(C=C4C(=C3)C=NN4)F
# Outline: as §1
# [5] = compound: CC1=C(C2=C(C=C1)C(=O)C3=CC=CC=C3N2CCCN)C
# Outline: as §1
# [6] = compound: CC1=C(C=C(C=C1)NC(=O)C2=CC(=CC=C2)C(C)(C)C#N)NC3=CC4=C(C=C3)N=CN(C4=O)C
# Outline: as §1
# [7] = compound: CC1=C(C=C(C=C1)NC(=O)C2=CC(=CC=C2)N(C)C)NC(=O)C3=CC=C(C=C3)O
# Outline: as §1
# [8] = compound: CC1=CC=C(C=C1)SC2=C3C=C(SC3=CN=C2)C(=O)N
# Outline: as §1
# vemurafenib = compound: CCCS(=O)(=O)Nc1ccc(F)c(C(=O)c2c[nH]c3ncc(-c4ccc(Cl)cc4)cc23)c1F [vemurafenib]
# Outline: as §1
# [9] = compound: CCCS(=O)(=O)Nc1ccc(F)c(C(=O)c2c[nH]c3ncc(Cl)cc23)c1F
# Outline: as §1
# barasertib = compound: CCN(CCCOc1ccc2c(Nc3cc(CC(=O)Nc4cccc(F)c4)[nH]n3)ncnc2c1)CCOP(=O)(O)O [barasertib]
# Outline: as §1
# [10] = compound: CC[C@@H]1C(=O)N(C)c2cnc(Nc3ccc(C(=O)NC4CCN(C)CC4)cc3OC)nc2N1C1CCCC1
# Outline: as §1
# volasertib = compound: CC[C@@H]1C(=O)N(C)c2cnc(Nc3ccc(C(=O)N[C@H]4CC[C@H](N5CCN(CC6CC6)CC5)CC4)cc3OC)nc2N1C(C)C [volasertib]
# Outline: as §1
# [11] = compound: CCn1c(C(=O)N(C2CC2)C2CC2)cc2c3c(ncn3C)c(Nc3cc(C)n(C)n3)nc21
# Outline: as §1
# [12] = compound: CCn1cc(-c2ccnc3[nH]c(-c4cccc(CN(C)C)c4)cc23)c(-c2ccc(NC(=O)N(C)C)cc2)n1
# Outline: as §1
# [13] = compound: CN1CCC(CNc2ccc3ncc(-c4cccc(OC(F)(F)F)c4)n3n2)CC1
# Outline: as §1
# saracatinib = compound: CN1CCN(CCOc2cc(OC3CCOCC3)c3c(Nc4c(Cl)ccc5c4OCO5)ncnc3c2)CC1 [saracatinib]
# Outline: as §1
# sotrastaurin = compound: CN1CCN(c2nc(C3=C(c4c[nH]c5ccccc45)C(=O)NC3=O)c3ccccc3n2)CC1 [sotrastaurin]
# Outline: as §1
Target,log2 fold change (ibrutinib),log2 fold change [1],log2 fold change (ralimetinib),log2 fold change [2],log2 fold change [3],log2 fold change [4],log2 fold change [5],log2 fold change [6],log2 fold change [7],log2 fold change [8],log2 fold change (vemurafenib),log2 fold change [9],log2 fold change (barasertib),log2 fold change [10],log2 fold change (volasertib),log2 fold change [11],log2 fold change [12],log2 fold change [13],log2 fold change (saracatinib),log2 fold change (sotrastaurin)
RPS23 (UniProt P62266),inactive: 0.012,inactive: -0.007,inactive: -0.008,inactive: -0.033,inactive: 0.04,inactive: -0.029,inactive: -0.124,inactive: -0.003,inactive: -0.024,inactive: 0.035,inactive: -0.016,inactive: 0.034,inactive: -0.023,inactive: 0.027,inactive: -0.002,inactive: -0.039,inactive: 0.1,inactive: -0.051,inactive: -0.037,inactive: -0.026
RPS25 (UniProt P62851),inactive: -0.021,inactive: 0.023,inactive: -0.033,inactive: -0.011,inactive: 0.009,inactive: -0.032,inactive: -0.038,inactive: 0.003,inactive: -0.032,inactive: 0.065,inactive: -0.001,inactive: -0.011,inactive: -0.042,inactive: -0.004,inactive: -0.005,inactive: -0.015,inactive: -0.078,inactive: 0.033,inactive: 0.015,inactive: -0.016
RPLP0 (UniProt P05388),inactive: 0.003,inactive: -0.019,inactive: -0.007,inactive: -0.019,inactive: -0.016,inactive: -0.016,inactive: -0.045,inactive: 0.032,inactive: -0.005,inactive: 0.001,inactive: 0.011,inactive: -0.018,inactive: -0.027,inactive: -0.004,inactive: -0.009,inactive: 0.024,inactive: -0.036,inactive: 0.034,inactive: -0.01,inactive: -0.046
RPS4X (UniProt P62701),inactive: 0,inactive: -0.003,inactive: 0.009,inactive: -0.021,inactive: 0.022,inactive: -0.026,inactive: -0.116,inactive: -0.008,inactive: -0.001,inactive: 0.034,inactive: 0.001,inactive: -0.014,inactive: -0.033,inactive: 0.001,inactive: -0.007,inactive: -0.025,active: 0.242,inactive: -0.059,inactive: -0.016,inactive: -0.009
RPSA (UniProt P08865),inactive: 0.009,inactive: -0.013,inactive: -0.004,inactive: -0.019,inactive: 0.006,inactive: -0.003,inactive: -0.033,inactive: 0.017,inactive: 0.01,inactive: 0.012,inactive: 0.008,inactive: -0.012,inactive: -0.006,inactive: -0.013,inactive: -0.035,inactive: -0.01,inactive: -0.088,inactive: 0.02,inactive: 0,inactive: 0
RTN3 isoform 5 (UniProt O95197),inactive: -0.16,inactive: 0.025,inactive: 0.02,inactive: -0.006,inactive: 0.009,inactive: 0.091,inactive: 0.046,inactive: 0.006,inactive: 0,inactive: 0.014,inactive: -0.063,inactive: 0.105,inactive: 0.062,inactive: -0.058,inactive: 0.07,inactive: -0.013,inactive: -0.012,inactive: -0.067,inactive: 0,inactive: 0.035
RPL7L1 (UniProt Q6DKI1),inactive: 0.03,inactive: 0.012,inactive: 0.004,inactive: 0.009,inactive: 0.041,inactive: -0.034,inactive: -0.048,inactive: 0.008,inactive: 0.024,inactive: 0.015,inactive: 0.045,inactive: 0.008,inactive: 0.001,inactive: -0.046,inactive: -0.035,inactive: 0.033,inactive: -0.049,inactive: -0.02,inactive: -0.039,inactive: 0.014
RPS13 (UniProt P62277),inactive: 0.013,inactive: 0.024,inactive: 0.02,inactive: 0.022,inactive: -0.026,inactive: -0.032,inactive: -0.069,inactive: -0.022,inactive: -0.035,inactive: 0.062,inactive: -0.037,inactive: -0.001,inactive: 0.009,inactive: -0.066,inactive: 0.007,inactive: 0.036,inactive: 0.196,inactive: -0.131,inactive: 0.011,inactive: -0.015
RPL37 (UniProt P61927),inactive: 0.026,inactive: -0.043,inactive: -0.07,inactive: 0.044,inactive: -0.129,inactive: -0.04,inactive: -0.006,inactive: -0.101,inactive: 0.018,inactive: -0.061,inactive: -0.018,inactive: 0.044,inactive: -0.026,inactive: 0.113,inactive: 0.007,inactive: 0.018,inactive: 0.04,inactive: -0.031,inactive: 0.005,inactive: -0.077
RPS9 (UniProt P46781),inactive: -0.02,inactive: 0.015,inactive: 0.016,inactive: 0.026,inactive: -0.007,inactive: -0.038,inactive: -0.095,inactive: -0.048,inactive: 0.006,inactive: 0.043,inactive: -0.037,inactive: -0.01,inactive: -0.003,inactive: -0.074,inactive: -0.005,inactive: 0.03,active: 0.302,inactive: -0.063,inactive: 0,inactive: -0.023
RRAGA (UniProt Q7L523),inactive: -0.114,inactive: 0.008,inactive: -0.112,inactive: -0.524,inactive: 0.006,inactive: 0.005,inactive: -0.089,inactive: 0.079,inactive: 0.343,inactive: -0.113,inactive: 0.111,inactive: 0.092,inactive: -0.004,inactive: 0.014,inactive: 0.042,inactive: 0.139,inactive: -0.011,inactive: 0.051,inactive: 0.081,inactive: -0.014
RRP12 (UniProt Q5JTH9),inactive: 0.018,inactive: -0.009,inactive: 0.002,inactive: -0.012,inactive: 0.02,inactive: 0.025,inactive: -0.056,inactive: 0.019,inactive: 0.057,inactive: 0.064,inactive: -0.006,inactive: 0.033,inactive: 0.013,inactive: -0.024,inactive: -0.019,inactive: 0.013,inactive: 0.019,inactive: -0.056,inactive: 0,inactive: 0.049
RRAS2 (UniProt P62070),inactive: 0.044,inactive: -0.05,inactive: 0.011,inactive: -0.024,inactive: 0.016,inactive: 0.049,inactive: 0.065,inactive: -0.012,inactive: 0.056,inactive: -0.051,inactive: 0.029,inactive: 0.038,inactive: 0.002,inactive: 0.126,inactive: -0.038,inactive: -0.028,inactive: -0.019,inactive: 0.089,inactive: 0.067,inactive: -0.006
RPRD1A (UniProt Q96P16),inactive: 0.073,inactive: 0.047,inactive: 0.058,inactive: -0.047,inactive: 0.048,inactive: -0.033,inactive: 0.007,inactive: 0.019,inactive: 0.005,inactive: -0.001,inactive: -0.061,inactive: 0.031,inactive: 0.053,inactive: -0.026,inactive: -0.007,inactive: 0.019,inactive: 0,inactive: -0.016,inactive: -0.009,inactive: -0.005
RUFY1 (UniProt Q96T51),inactive: -0.008,inactive: -0.001,inactive: 0.002,inactive: -0.04,inactive: -0.032,inactive: 0.004,inactive: 0.002,inactive: 0.012,inactive: 0.017,inactive: -0.029,inactive: -0.033,inactive: 0.004,inactive: 0.009,inactive: 0.01,inactive: -0.002,inactive: 0.009,inactive: -0.021,inactive: 0.019,inactive: -0.002,inactive: 0
RPS29 (UniProt P62273),inactive: 0.002,inactive: 0.025,inactive: -0.138,inactive: 0.03,inactive: -0.109,inactive: 0.086,inactive: -0.093,inactive: -0.108,inactive: -0.068,inactive: 0.058,inactive: -0.005,inactive: 0.039,inactive: -0.034,inactive: -0.028,inactive: 0.078,inactive: 0.109,active: 1.01,inactive: -0.262,inactive: -0.007,inactive: -0.133

# Just log2 fold change (sotrastaurin) (2 entries from above):
Target	log2 fold change (sotrastaurin)
RRAGA (UniProt Q7L523)	inactive: -0.014
RRP12 (UniProt Q5JTH9)	inactive: 0.049
